Results published in the supplement of paper PMC5949888.
Most values lie at the floor of the assay. Slopes are relative: functional sequences can read slightly below zero.

System: Saccharomyces cerevisiae PS128 hsf1 delta, HSF1(1-493) fusion
Test: growth estimate (transactivation domain function in HSF1 fusion, heat-shock survival) (a.u. (slope of normalised read count over time)); higher = stronger growth at 37°C, i.e. more transactivation activity
Details: library: random library

Question: Which growth estimate does the source give for EANDRNGGPTGLASN here?
Answer: < -0.25

Question: For TSHGG, which growth estimate is on record?
Answer: < -0.253

Question: KRGRVLVPTLYPGKHAASLV was tested. Which growth estimate did it give?
Answer: -0.246

Question: How did the growth estimate turn out when NSRVTGGELTRGTLMPGPRS was run?
Answer: < -0.25

Question: AGKGDTIALGTLVIS was tested. Which growth estimate did it give?
Answer: < -0.25

Question: For SGGGVVEYRRLTSRVSRFTD, which growth estimate is on record?
Answer: < -0.25

Question: With VPDDDPRDVKNSIRLSGHP as the substance, how does the growth estimate read?
Answer: < -0.25

Question: RGYSGASSRWGYGPRVALVI was tested. Which growth estimate did it give?
Answer: < -0.25

Question: How did the growth estimate turn out when LREATAGSPI was run?
Answer: < -0.25

Question: QNHRCSRVALPRLDERRVAA was tested. Which growth estimate did it give?
Answer: < -0.25

Question: With AVTDARRGQGVQLWTGRTEL as the substance, how does the growth estimate read?
Answer: < -0.25

Question: How did the growth estimate turn out when LKEATCTDGQVHTIVTMEPV was run?
Answer: < -0.25

Question: With ITFKKARFLFIWQNPIGVIR as the substance, how does the growth estimate read?
Answer: < -0.25

Question: How did the growth estimate turn out when LVVA was run?
Answer: < -0.25

Question: Which growth estimate does the source give for VIQPSASYSRKEG here?
Answer: < -0.25

Question: Which growth estimate does the source give for CILSHCNQVPVESLRLKRFK here?
Answer: < -0.25

Question: For EQIAPGSQKGHTCAATVRSC, which growth estimate is on record?
Answer: < -0.25

Question: Which growth estimate does the source give for RFLPWYHCTVEQ here?
Answer: < -0.25

Question: Which growth estimate does the source give for SGSS here?
Answer: < -0.25

Question: Which growth estimate does the source give for PDMAVGFFSRIGVPVRYVTS here?
Answer: < -0.25

Question: With GGRIKGWDESAPELLWIS as the substance, how does the growth estimate read?
Answer: < -0.25

Question: LRGKVS was tested. Which growth estimate did it give?
Answer: < -0.25

Question: How did the growth estimate turn out when IFLTNNVTR was run?
Answer: < -0.25

Question: How did the growth estimate turn out when GFQLRIYSAQCAPV was run?
Answer: < -0.25

Question: For SVTSYAGGRGGPRVLAEDGR, which growth estimate is on record?
Answer: < -0.25

Question: For HIILQIAAGCPRQ, which growth estimate is on record?
Answer: < -0.25

Question: YKVREGLS was tested. Which growth estimate did it give?
Answer: < -0.25

Question: For RILAPKRWPS, which growth estimate is on record?
Answer: < -0.25

Question: Which growth estimate does the source give for IKTRVQRDRNRSSRICDQVC here?
Answer: < -0.25

Question: How did the growth estimate turn out when RVCAV was run?
Answer: < -0.25

Question: With ETSVGWAKDEVTFGPHPWLR as the substance, how does the growth estimate read?
Answer: < -0.25

Question: For NCEGYHINRSSFVNQPVHRN, which growth estimate is on record?
Answer: < -0.25

Question: For GAWVRLEG, which growth estimate is on record?
Answer: < -0.25

Question: With RVSTLAGDAR as the substance, how does the growth estimate read?
Answer: < -0.25

Question: How did the growth estimate turn out when LALVPVLVRTESVFRVVDIV was run?
Answer: < -0.25

Question: How did the growth estimate turn out when DCCDQ was run?
Answer: < -0.25

Question: How did the growth estimate turn out when KHGAQKVQ was run?
Answer: < -0.25

Question: With ANIILSDLMGMLYACTVSVH as the substance, how does the growth estimate read?
Answer: < -0.25

Question: GQWEESRQMETSTKDYKTV was tested. Which growth estimate did it give?
Answer: < -0.25

Question: PVLLYIKSLSGRGDNSPRPC was tested. Which growth estimate did it give?
Answer: -0.246

Question: PKLGP was tested. Which growth estimate did it give?
Answer: < -0.25

Question: Which growth estimate does the source give for KACSYD here?
Answer: < -0.25

Question: PGENLPCQISLEPSSIVAPI was tested. Which growth estimate did it give?
Answer: < -0.25

Question: Which growth estimate does the source give for GDGTCSPSVPSY here?
Answer: < -0.25

Question: LIKPC was tested. Which growth estimate did it give?
Answer: < -0.25

Question: Which growth estimate does the source give for CIRTAVRALGNLVPMEKGWA here?
Answer: < -0.25

Question: Which growth estimate does the source give for DSDSSTDGPGALDACLRLTS here?
Answer: < -0.25

Question: For DKRQLQNRNDR, which growth estimate is on record?
Answer: < -0.25

Question: Which growth estimate does the source give for GDLADVYVGHSLRTGSRVHY here?
Answer: < -0.25

Question: With SVHSST as the substance, how does the growth estimate read?
Answer: < -0.25

Question: Which growth estimate does the source give for DICESREGRSIVRGTCSPIA here?
Answer: < -0.25

Question: How did the growth estimate turn out when TKRSTITRAAGDAVWRL was run?
Answer: < -0.25

Question: Which growth estimate does the source give for RNWCISRLGRAWISRKHM here?
Answer: < -0.25

Question: For IDAFK, which growth estimate is on record?
Answer: 0.194

Question: For GEFSTGPMYGVRKEGGSVGS, which growth estimate is on record?
Answer: < -0.25

Question: For TTRAESAL, which growth estimate is on record?
Answer: < -0.25

Question: Which growth estimate does the source give for IVANNPRKGRRWGALRGKIV here?
Answer: < -0.25

Question: For GTLTFKRIRLVILTSCTTTQ, which growth estimate is on record?
Answer: < -0.25

Question: For ISATKRLA, which growth estimate is on record?
Answer: < -0.25

Question: For PRIRPTQVC, which growth estimate is on record?
Answer: < -0.25

Question: MNHSW was tested. Which growth estimate did it give?
Answer: < -0.25

Question: With GQCESDADYCWLRVR as the substance, how does the growth estimate read?
Answer: < -0.25

Question: How did the growth estimate turn out when TGTGFY was run?
Answer: < -0.25

Question: With SFSGITGLHGMGA as the substance, how does the growth estimate read?
Answer: < -0.25

Question: How did the growth estimate turn out when NTIGIMWHQERMAGESQWIV was run?
Answer: < -0.25

Question: ERVRRRYG was tested. Which growth estimate did it give?
Answer: < -0.25

Question: Which growth estimate does the source give for TAEEPARFTTRFHGLLSICP here?
Answer: < -0.25

Question: With AVAEWHLLRGTTFRTGVWPL as the substance, how does the growth estimate read?
Answer: < -0.25

Question: ECSPAGGVVVALALKSQPLS was tested. Which growth estimate did it give?
Answer: < -0.25

Question: Which growth estimate does the source give for RLVVRKVRFRTRPQVTALVG here?
Answer: < -0.25

Question: For RVRAIIREIRCWDIESSRQF, which growth estimate is on record?
Answer: < -0.25

Question: With SDLRKPLPPDW as the substance, how does the growth estimate read?
Answer: < -0.25

Question: For METRMVGTHALAMIGNNVHL, which growth estimate is on record?
Answer: < -0.25

Question: With KIWARSRIIGYELALGRANS as the substance, how does the growth estimate read?
Answer: < -0.25

Question: For RIGPAPAQFVVRLR, which growth estimate is on record?
Answer: < -0.25

Question: Which growth estimate does the source give for RSGLHAKNVMATDVTGMMSQ here?
Answer: < -0.25

Question: How did the growth estimate turn out when LWYAIFNS was run?
Answer: < -0.25

Question: With WTVPIL as the substance, how does the growth estimate read?
Answer: < -0.25

Question: For GLKVKPVI, which growth estimate is on record?
Answer: < -0.25

Question: RLRKEPSEGNPSLD was tested. Which growth estimate did it give?
Answer: < -0.25

Question: For GYIC, which growth estimate is on record?
Answer: < -0.25

Question: With EHALRDCDTGFEMRWSSSFA as the substance, how does the growth estimate read?
Answer: < -0.25

Question: REGPGASEARYSALLALYRQ was tested. Which growth estimate did it give?
Answer: < -0.25

Question: Which growth estimate does the source give for QPESLYPFPDGVNGHVSA here?
Answer: < -0.25

Question: Which growth estimate does the source give for IRFVYVGTALVKERRL here?
Answer: < -0.25

Question: Which growth estimate does the source give for PKRLSWGTVGVNRSPSYLVR here?
Answer: < -0.25

Question: For NYARE, which growth estimate is on record?
Answer: < -0.25

Question: With LDPIIFSGGSTA as the substance, how does the growth estimate read?
Answer: < -0.25

Question: For GVLIGHHCEWSWVCPCSF, which growth estimate is on record?
Answer: 0.0976

Question: Which growth estimate does the source give for SWVDKLTSSSQAGS here?
Answer: < -0.25

Question: How did the growth estimate turn out when YVTEAVDPRRFPIRRNRTCN was run?
Answer: < -0.25

Question: How did the growth estimate turn out when LRLRSRSVLPYKTAHDPV was run?
Answer: < -0.25

Question: With VCHFFYVCRSVVHSSAACSI as the substance, how does the growth estimate read?
Answer: < -0.25

Question: With WPLPNSGTYV as the substance, how does the growth estimate read?
Answer: < -0.25

Question: How did the growth estimate turn out when IMILQRLCSDRNMVTKDGPS was run?
Answer: < -0.25

Question: With MCIFINESGSSTDQTQFYRG as the substance, how does the growth estimate read?
Answer: < -0.25

Question: With LRKVRLSG as the substance, how does the growth estimate read?
Answer: < -0.25

Question: Which growth estimate does the source give for TCWG here?
Answer: < -0.25
